Several values for one entry are separate records, joined by “and”; a condition that tells them apart may be missing. Identical values can stand only once. Hit rate of the full screen: of about 350,000 compounds, about 6,000 (1.7%) were called active. Inconclusive means that the source gave no clear call. Such entries were picked first, then a sample of the others. No stated cut-off is given here; in the data, active means CPE inhibition above about 20% (passing the limit was not always enough); inconclusive means no clear call, values can overlap the other calls; tested in BHK-21 cells.
experiment: protection of cells from dengue 2 killing – plate reader, single concentration, primary screen (AID 651640); settings: DENV2-infected cells, cytopathic effect rescue, at 9.99 µM, active compounds read high;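 further: 0% = median of neutral control wells and 100% = median of positive control wells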

Row | SMILES | CPE inhibition
1 | Cc1cccc(S(=O)(=O)N2CCCCN3[C@H](CO)[C@H](c4ccc(C#CC(C)C)cc4)[C@H]3C2)c1 | inactive: -2.29%
2 | O=S(=O)(c1cccc2ccccc12)N1CCC2CC1c1cc(-c3ccc(F)cc3)ccc12 (configuration not stated) | inconclusive: 50.9%
3 | Cc1cc(F)ccc1C(O)c1ncc(-c2ccccc2Cl)[nH]1 (configuration not stated) | inconclusive: 41.9%
4 | Cc1ccc(S(=O)(=O)N(C)C[C@@H]2OCCCC[C@@H](C)Oc3ccc(NC(=O)Nc4ccc(F)cc4)cc3C(=O)N([C@@H](C)CO)C[C@H]2C)cc1 | inconclusive: 47.9%
5 | COc1ccc(/C=C2\SC(=O)N(CCC(=O)N3CCN(C)CC3)C2=O)cc1 | inconclusive: 21.6%
6 | COCC(=O)Nc1ccc2c(c1)OC[C@H](C)N(C(=O)CC1CC1)C[C@H](C)[C@H](OC)CN(C)C2=O | active: 30.9%
7 | C/C=C/c1cnc2c(c1)C(=O)N([C@H](C)CO)C[C@@H](C)[C@@H](CN(C)S(=O)(=O)c1ccccc1)O2 | inactive: -3.47%
8 | CN(C)CC(=O)Nc1ccc2c(c1)[C@H]1C[C@H](CC(=O)N3CCCCC3)O[C@H](CO)[C@H]1O2 | inactive: 1.8%
9 | COc1ccccc1Cc1c(-c2ccc(C#N)cc2)nc2ccc(C)cn12 | inconclusive: 74.5%
10 | O=C(C[C@H]1CC[C@@H]2[C@H](COC[C@H](O)CN2C(=O)C2CCCC2)O1)NCc1ccncc1 | active: 30.3%
11 | COc1cc(/C=N/NC(=O)c2ccccn2)ccc1OC(=O)c1ccccc1Br | inconclusive: 23.9%
12 | CCC(=O)NC[C@H]1[C@@H](c2ccc(C3=CCCC3)cc2)[C@@H](CO)N1C(=O)CC | active: 31.3%
13 | COc1ccccc1NC(=O)C[C@H]1CC[C@H]2[C@@H](COc3ccc(NS(C)(=O)=O)cc3C(=O)N2C)O1 | inconclusive: 24.7%
14 | CC(=O)N1CC(=O)N2[C@H](CO)[C@@H](c3ccc(-c4ccc(C(=O)N(C)C)cc4)cc3)[C@@H]2C1 | inconclusive: 23%
15 | O=C(CC1CC1)N1CC2(C1)[C@@H](c1ccccc1)[C@@H](CO)N2C(=O)c1cnccn1 | active: 32.5%
16 | Cc1cc(/C(N)=N/OC(=O)Nc2cccc(C(F)(F)F)c2)no1 | inactive: -0.304%
17 | NS(=O)(=O)c1cccc(NC(=O)COC(=O)Cn2cnc3ccccc32)c1 | inconclusive: 44.3%
18 | Cc1ccc(S(=O)(=O)Nc2ccc3c(c2)CC(=O)N([C@H](C)CO)C[C@H](C)[C@@H](CN(C)S(=O)(=O)c2ccc(C)cc2)O3)cc1 | active: 66.9%
19 | C[C@@H]1CN([C@@H](C)CO)C(=O)c2c(c3ccccc3n2C)-c2ccccc2CO[C@@H]1CN(C)Cc1ccc(C(=O)O)cc1 | inconclusive: 23.5%
20 | O=C(NC(=S)NCc1ccccc1)c1ccccc1[N+](=O)[O-] | inconclusive: 22.5%
21 | Cc1ccc(Nc2nc(N)nc(CSC(=S)N3CCOCC3)n2)c(C)c1 | inconclusive: 50.6%
22 | CCCS(=O)(=O)NC(=O)C1(C)CCN(C(=O)c2ccc(OC)cc2OC)C1 (configuration not stated) | inconclusive: 37.2%
23 | Nc1nc(O)c(CC(=O)O)s1 | inconclusive: 25.9%
24 | OC[C@@H]1[C@@H](c2ccc(-c3cccc(F)c3)cc2)[C@@H]2CN(CCC(F)(F)F)CCCCN12 | inactive: -0.452%

Row | SMILES | CPE inhibition
25 | COCCC(C(=O)Oc1c(C(C)(C)C)cc(C)cc1C(C)(C)C)c1ccccc1 (configuration not stated) | inconclusive: 51.2%
26 | O=c1ccnc(Nc2ccc3c(c2)OCCO3)[nH]1 | inconclusive: 24.2%
27 | C/C(C=O)=C/c1ccccc1 | active: 90.6%
28 | C[C@@H]1CCCCO[C@H](CN(C)S(=O)(=O)c2cccs2)[C@H](C)CN([C@H](C)CO)C(=O)c2cc(NC(=O)Nc3ccccc3)ccc2O1 | inconclusive: 44.7%
29 | CC12CCC(=O)C=C1CCC1C2C(O)CC2(C)C1CCC21OCC1=O (configuration not stated) | inconclusive: 38.9%
30 | O=C(CN1C(=O)CCS(=O)(=O)c2ccccc21)Nc1ccccc1F | inconclusive: 22.7%
31 | Cc1noc(C)c1NC(=O)N(C)C[C@H]1Oc2ccc(N(C)C)cc2C(=O)N([C@H](C)CO)C[C@@H]1C | inactive: -1.07%
32 | CO[C@@H]1CN(C)C(=O)c2ccc(NS(C)(=O)=O)cc2OC[C@H](C)N(Cc2nccs2)C[C@H]1C | inconclusive: 22.6%
33 | Cc1ccc(F)cc1C(=O)N1CCCCC1c1cc(C(=O)NC(C)C)no1 (configuration not stated) | active: 56.1%
34 | CC(OC(=O)C1CC1)C(=O)Nc1cc(C(F)(F)F)ccc1Cl (configuration not stated) | inconclusive: 42.8%
35 | Cc1cc(NC(=O)CCN2CCN(C)CC2)ccc1Br | inactive: 11.8%
36 | O=C(NCC(c1ccco1)N1CCc2ccccc21)C(=O)Nc1ccccc1 (configuration not stated) | inconclusive: 30.5%
37 | Nc1cc(=O)[nH]c(SCCSc2ccc(F)cc2)n1 | inconclusive: 39.2%
38 | CCCS(=O)(=O)NC(=O)C1(C)CCN(C(=O)c2ccccc2OC(F)(F)F)C1 (configuration not stated) | inconclusive: 65.7%
39 | CC(C)(C)c1ccc(C(=O)NCc2nnc(SCC(=O)NCc3ccco3)o2)cc1 | inconclusive: 51.2%
40 | C[C@H](CO)N1C[C@H](C)[C@H](CN(C)C(=O)c2ccccn2)Oc2ncc(C3=CCCCC3)cc2C1=O | active: 62.1%
41 | Cc1ccc(S(=O)(=O)Nc2ccc3c(c2)C(=O)N([C@H](C)CO)C[C@@H](C)[C@H](CN(C)S(C)(=O)=O)O3)cc1 | inactive: -9.51%
42 | COc1cccc2cc(C(=O)OCC(=O)N3CC(C)OC(C)C3)c(=O)oc12 (configuration not stated) | inconclusive: 20.6%
43 | O=C(COC(=O)c1cccc(-n2cnnn2)c1)Nc1c(Cl)cccc1C(F)(F)F | inactive: 7.82%
44 | COc1cccc(C(C(=O)NC(C)(C)C)N(CCc2ccccc2)C(=O)CCC(=O)Nc2cc(C)on2)c1OC (configuration not stated) | inconclusive: 45.4%
45 | COc1ccc(C(=O)NC2CCN(CC(=O)NCc3ccccc3)CC2)cc1 | inconclusive: 35.4%
46 | Cc1cccnc1NC(=O)c1cccc(S(=O)(=O)N2CCCC2)c1 | active: 31.2%
47 | C#CCNC(=O)C1=C[C@H](c2coc3ccccc3c2=O)C[C@H](OCc2ccc(CO)cc2)O1 | inactive: -5.79% and inactive: -7.43%

Source: PubChem BioAssay AID651640 (Broad Institute, 2012)
